Reference: PMC3879359
These are yes or no findings as the source states them, for the method shown. In cells and extracts the contact can be indirect. For part of these data: A result given as binding can be weak or reduced; the word gives no strength.

Experiments:
Assay in all cases: co-IP; anti-HA high affinity matrix on 300 µg parasite lysate (150 mM NaCl, 50 mM TrisCl pH 7.4, 0.1% NP-40), overnight at 4°C; Western blot with HA, GCN5b or β-tubulin antibodies; parental RHΔku80 as control
[1] = molecular target: AP2IX-7 endogenously tagged with a C-terminal 3xHA tag (Toxoplasma gondii (endogenous locus tagged in RHΔku80))
[2] = molecular target: AP2X-5 endogenously tagged with a C-terminal 3xHA tag (Toxoplasma gondii (endogenous locus tagged in RHΔku80))
[3] = molecular target: AP2X-8 endogenously tagged with a C-terminal 3xHA tag (Toxoplasma gondii (endogenous locus tagged in RHΔku80))

B1: GCN5b (endogenous) (enzyme, UniProt S8F3V2 1-1032)
chain: MAPSECPSDAPGGSGESRVSAEPSSSETPSSAVSSHSPHRAQLSSTQPKNPASPPTSDVSAPHVPLLGAEASGGDPSADPLGGEGAMERERQAFAEGPGLSARVETALSPQLRTTSGELQQAAADAAVSPDGEKEKEVANSRKGEDSGRLSAFVGRGSRRSSHAEPAEGPSLPSGADGRLPASGPWASEAPPAGRSASAPVPPVSPGFAFPSVTSCLPLNASIGDIALRLVKEILQPVLARDIQVDPPSPFRFTASGMAKALELSPVCFSPAYAASLRKSYAQMGTAGSCFYCVSAPCVCGAFAPPLAQARPAENKKRGRDACEGPQAEPPVGRGPRRGPNDSGAPVGQDLPGGPQAPGGPGGGFGAGQTFQDNLRQMCLFHPYSSVPPPKLIDMRYLCLFLSASADSPFACATRTGLCPFFGDGPFGPDGETRNGREGPLARSGDKVEGEKTFLSFVDETADFGDASVEKGFPDHARIGWEVVEEVAESLEAIFNTIQMETVEDRRDALTVPDEFYAQNYWEWRQFLLDKAPTGASVSRTFGRSLLRSLLLASPGTIAKDLQRTPISFAAGILFFRLCEEVGIEPETRHVLWRTVASSQPELRSRLVSESGLGFLCRDLGSAKEEEAGLITFKCVTNDRQPFSSRALVTVKNIFSRQLPKMPREYIVRLVFDRNHYTFCLNKEDTIIGGCCFRPYFQQKFAEIAFLAVTSTEQVKGYGTRLMNHLKEHVKKSGIEYFLTYADNFAVGYFRKQGFTQKISMPRERWYGYIKDYEGGTLMECHINPRINYLRLSEMLHDQQQVIKRATVSLKPLAVYPGLDFWKKNPGQTLSPSQIPGLLQCGWHPGEGAPRAGADGKGISEAERAFLGSTGAPDGAGSAGVGQGYMRPLHEQIMDILDALGKHHSAWPFLKPVSREEAPDYYDVILQPTDISTMKKKCKKKHYTTAQMFADEVQLMFKNCRQYNHQQTIYYKYANELDKFVTPKIQALKQAFQQQQKQLAQKGAASGTGVPPLRSPQGGDEGLVGAKHPTFF
binding [1]: binds | binding [2]: no binding | binding [3]: binds
